Data reported in PubChem BioAssay AID2685 (National Center for Advancing Translational Sciences (NCATS), 2010).
About 2,100 (0.66%) of roughly 320,000 compounds were called active. Inconclusive means that the source gave no clear call. Such entries were picked first, then a sample of the others. Calls follow the shape of the dose curve; as a rule, active = well fitted inhibition curve with a large enough effect in the signal ratio, with a control signal flat (not every such curve was filed as active); inconclusive = small, poorly fitted or top-dose-only effect, or effect the other way, or a change in a side signal; inactive = flat fitted curve, though single readings scatter; the % refers to the signal ratio. Potencies beside an inconclusive call are fits to weak or partial responses and may not hold up.
% is scaled to controls: 0 for no effect and ±100 for the full control effect; potency is read from the fitted curve at half-maximal effect.

Assay: qHTS Assay for Lipid Storage Modulators in Drosophila S3 Cells
Conditions: BODIPY lipid droplet fluorescence, 18-24 h, cells fed with added oleic acid; lipid storage change, negative = inhibition: at 46.1 µM (top of the series) unless noted
In short: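 Laser-scanning cytometry quantifies lipid droplet accumulation (500–530 nm total intensity; droplet/cell object ratio) in oleic acid-fed (400 uM added) Drosophila S3 cells treated with a concentration series. 20 uM Triacsin C defined 100% inhibition.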
In the case of `COc1ccc(OC)c(CC(NC(C)=O)C(=O)NC2CCN(c3nc(C)cc(C)c3C#N)CC2)c1` (stereo unspecified), the lipid storage change, negative = inhibition is reported as inconclusive: -9.59%.
In the case of `O=C(CSc1nnc(CNC(=O)c2ccco2)o1)Nc1cccc(Cl)c1`, the Potency is reported as inconclusive: 29.1 µM [activator, partial curve].
With `Cc1ccc(NCCC(=O)c2ccccc2)cc1Cl` the lipid storage change, negative = inhibition was inconclusive: 5.28%.
For `Cc1cc(NC(=O)CCC(=O)N(CC(=O)NC2CCCC2)Cc2ccc3c(c2)OCO3)no1`, the lipid storage change, negative = inhibition was inconclusive: 9.22%.
For `CCCCCn1c(S(=O)(=O)O)nc2ccccc21`, the Potency was inconclusive: 6.51 µM [cytotoxic, single point].
For `NC(=O)c1ccc(NC(=O)COC(=O)CCN=C2NS(=O)(=O)c3ccccc32)cc1`, the lipid storage change, negative = inhibition was inconclusive: -10.2%.
With `Cc1ccccc1N1CCN(Cc2ccc([N+](=O)[O-])o2)CC1` the lipid storage change, negative = inhibition was inconclusive: -7.33%.
With `CCc1[nH]nc2c1C(c1ccc(Br)s1)C(C#N)=C(N)O2` (stereo unspecified) the Potency was inconclusive: 0.651 µM [activator, full curve, poor fit].
With `COc1cccc(/C=N\NC(=O)C2C(=O)NCC2c2ccccc2)c1O` (stereo unspecified) the lipid storage change, negative = inhibition was inconclusive: 4.46%.
In the case of `N=C1c2ccccc2CN1NC(=O)COc1ccc(Cl)cc1`, the Potency is reported as inconclusive: 0.731 µM [cytotoxic, full curve].
With `Cc1ccc(NS(=O)(=O)c2cccc(C(=O)N/N=C/c3c(C)nn(-c4ccccc4)c3N3CCCC3)c2)c(C)c1` the lipid storage change, negative = inhibition was inconclusive: 22.6%.
With `O=C(NC(=S)NCCc1ccccc1)c1ccco1` the lipid storage change, negative = inhibition was inconclusive: -4.59%.
In the case of `COc1ccc2[nH]c(=O)c(C(c3nnnn3C3CCCC3)N(C)C3CCCCC3)cc2c1` (stereo unspecified), the Potency is reported as inconclusive: 0.731 µM [falling, full curve].
With `CCOC(=O)c1c(NC(=O)CNC2CCCc3ccccc32)sc(C(N)=O)c1C` (stereo unspecified) the lipid storage change, negative = inhibition was inconclusive: -5.94%.
For `CCSC(SCC)[C@H](O)[C@@H](O)[C@H](O)[C@H](O)CO`, the lipid storage change, negative = inhibition was inconclusive: -4.49%.
In the case of `O=C(COc1ccccc1N1C(=O)C2C3C=CC(C3)C2C1=O)c1ccccc1` (stereo unspecified), the lipid storage change, negative = inhibition is reported as inconclusive: -7.53%.
For `Cc1ccc(SC(C)C(=O)Nc2ccncc2)cc1` (stereo unspecified), the Potency was inconclusive: 29.1 µM [activator, single point].
With `Cc1ccc(-c2noc(CNC(=O)COc3ccccc3C)n2)cc1` the Potency was inconclusive: 25.9 µM [falling, single point].
With `O=C(/C=C/c1ccc(F)cc1)Nc1ccc(S(=O)(=O)N2CCOCC2)cc1` the Potency was inconclusive: 3.55 µM [falling, partial curve, poor fit].
For `COc1cccc(C(=O)NCC2CCCN(C(=O)c3ccc(C=O)cc3)C2)c1OC` (stereo unspecified), the Potency was inconclusive: 17.8 µM [falling, single point].
For `O=C1CC(c2ccccc2)Cc2nc(NCc3ccco3)ncc21` (stereo unspecified), the Potency was inconclusive: 18.4 µM [activator, partial curve].
For `O=C1N(Cc2cccc(Cl)c2)C[C@@H]2C[C@@H](c3ccsc3)N3CCC[C@@]123`, the lipid storage change, negative = inhibition was inconclusive: -15.8%.
With `CN1C(C)(C)CC(=NOC(=O)c2ccccc2)CC1(C)C` the lipid storage change, negative = inhibition was inconclusive: 18%.
For `CC(C)Cn1c(=O)c2c(nc3n2CCCN3CCc2ccccc2)n(C)c1=O`, the lipid storage change, negative = inhibition was inconclusive: 31.9%.
In the case of `Cc1cc(C)nc(NS(=O)(=O)c2ccc(NC(=O)C(C)Oc3ccccc3F)cc2)n1` (stereo unspecified), the Potency is reported as inconclusive: 29.1 µM [activator, single point].
With `CCC(Sc1nc2ccc(N)cc2s1)C(=O)Nc1nccs1` (stereo unspecified) the Potency was inconclusive: 0.651 µM [activator, partial curve, poor fit].
For `COC(=O)C1=C(C(=O)OC)[C@@H]2N(C)c3ccccc3[C@@]23C[C@@H](C(=O)OC)N(C(C)=O)C3=N1`, the lipid storage change, negative = inhibition was inconclusive: -6.16%.
For `Cc1ccc2c(=O)cc(C(=O)NC3CCS(=O)(=O)C3)oc2c1C` (stereo unspecified), the lipid storage change, negative = inhibition was inconclusive: 16.2%.
With `COC(=O)CCCCCC(CCC(=O)OC)NC(C)=O` (stereo unspecified) the lipid storage change, negative = inhibition was inconclusive: -23.8%.
With `COc1ccc2c(Cl)c(-c3nnc(SCC(=O)c4ccccc4)n3C)sc2c1` the Potency was inconclusive: 29.1 µM [falling, single point].
With `O=C(N/N=C\c1ccc(-c2ccccc2[N+](=O)[O-])o1)C1COc2cc3ccccc3cc2O1` (stereo unspecified) the lipid storage change, negative = inhibition was inconclusive: -43.8%.
With `Cc1ccc(S(=O)(=O)N2CCN(C(=O)c3nn(C(C)C)c(=O)c4ccccc34)CC2)cc1C` the lipid storage change, negative = inhibition was “inactive”.
In the case of `Cc1ccccc1NS(=O)(=O)c1cc(C(=O)NCc2ccncc2)ccc1Cl`, the lipid storage change, negative = inhibition is reported as inconclusive: 45.5%.
With `Cc1cccc(NC(=O)Cc2c(F)cccc2Cl)n1` the Potency was inconclusive: 20.6 µM [activator, partial curve].
In the case of `CN(C)CCNC(=O)c1cccc(NS(=O)(=O)c2ccc(Cl)c(Cl)c2)c1`, the lipid storage change, negative = inhibition is reported as inconclusive: -12.5%.
In the case of `O=C(CC1Oc2ccccc2NC1=O)NC1CCCC1` (stereo unspecified), the lipid storage change, negative = inhibition is reported as inconclusive: 39%.
In the case of `O=C(CCc1nnc(CCCc2ccccc2)o1)NCCc1ccccc1`, the lipid storage change, negative = inhibition is reported as inconclusive: 0.559%.
In the case of `COc1cc(OC)c2cc(C(=O)N/N=C/c3ccccc3O)[nH]c2c1`, the lipid storage change, negative = inhibition is reported as inconclusive: -19.5%.
In the case of `Brc1cc2c(cc1CSc1ncccn1)OCO2`, the lipid storage change, negative = inhibition is reported as inconclusive: 387%.
In the case of `O=C(CCn1cnc2ccccc2c1=O)Nc1cccc(Cl)c1Cl`, the Potency is reported as inconclusive: 0.0046 µM [falling, full curve, poor fit].
In the case of `COCCn1c(N)c(Sc2ccc(C)cc2)c(=O)[nH]c1=O`, the lipid storage change, negative = inhibition is reported as inconclusive: -60%.
In the case of `Cc1ccc(-c2nc3ccccc3o2)cc1NC(=S)NC(=O)c1cccs1`, the Potency is reported as inconclusive: 20.6 µM [falling, partial curve].
In the case of `COc1ccc(-n2nc3cc(C)c(N)c(Br)c3n2)cc1`, the Potency is reported as inconclusive: 1.64 µM [activator, partial curve].
For `N#Cc1nc(N)nc(N(c2ccccc2)c2ccccc2)n1`, the lipid storage change, negative = inhibition was inconclusive: -27.8%.
With `COc1ccccc1C/C(N)=N/OC(=O)c1ccc2c(c1)OCO2` the lipid storage change, negative = inhibition was inconclusive: 3.84%.
For `Cc1ccc(OCC(=O)N2N=C(c3ccc(Cl)cc3)CC2c2ccco2)c([N+](=O)[O-])n1` (stereo unspecified), the lipid storage change, negative = inhibition was inconclusive: 25.2%.
In the case of `CC(CNC(=O)CCC(=O)N1CCOc2ccc(Cl)cc21)c1ccccc1` (stereo unspecified), the Potency is reported as active: 0.92 µM.
In the case of `CC(C)(C)CC(=O)NC(=S)NCc1ccccc1`, the lipid storage change, negative = inhibition is reported as inconclusive: -19.2% [at 9.22 µM].
In the case of `CC(C)Oc1ccc(C(CC(=O)O)Cc2ccccc2)cc1` (stereo unspecified), the Potency is reported as inconclusive: 16.4 µM [falling, partial curve, poor fit].
In the case of `C#Cc1cccc(C(=O)N2CCCC(Nc3cccc(F)c3)C2)c1` (stereo unspecified), the lipid storage change, negative = inhibition is reported as inconclusive: -19.2%.
In the case of `Cc1ccccc1C1c2[nH]c3ccccc3c2C[C@H]2C(=O)N(C3CC3)CC(=O)N12` (stereo partly specified), the lipid storage change, negative = inhibition is reported as “inactive”.
With `COc1ccccc1CN1CCCCCC1` the lipid storage change, negative = inhibition was “inactive”.
With `Cc1cc(C)c(NC(=O)C(C)Sc2nc3ccc(N4C(=O)c5ccccc5C4=O)cc3s2)c(C)c1` (stereo unspecified) the lipid storage change, negative = inhibition was inconclusive: 35.9%.
In the case of `CCOC(=O)c1cc(=O)n2nc(-c3ccc(C)cc3)nc2s1`, the lipid storage change, negative = inhibition is reported as inconclusive: -38.2%.
For `COc1ccc(OC)c(-c2cnc(OC(C)(C)C)nc2OC(C)(C)C)c1`, the Potency was inconclusive: 9.2 µM [falling, partial curve, poor fit].
With `COc1cccc([C@@H]2CC=C(C(=O)O)[C@H](c3ccccc3)N2S(=O)(=O)c2ccc(C)cc2)c1` the Potency was inconclusive: 1.64 µM [activator, partial curve].
In the case of `COc1cc(OC)c(C2SCCCS2)cc1OC`, the lipid storage change, negative = inhibition is reported as inconclusive: 0.0435%.
For `COC(=O)Cn1cnc2c(nnn2-c2ccc(OC)cc2)c1=O`, the lipid storage change, negative = inhibition was inconclusive: 7.1%.
For `Cc1n[nH]c(=S)n1/N=C/c1ccccc1OCc1ccc(Cl)cc1`, the lipid storage change, negative = inhibition was inconclusive: -9.97%.
With `Cc1cc(OCC(=O)NCc2nc(-c3ccccc3)no2)c(C)cc1Br` the lipid storage change, negative = inhibition was “inactive”.
In the case of `Cc1ccc(CN2CCN(Cc3cnc(N(C)C)s3)CC2CCO)o1` (stereo unspecified), the Potency is reported as inconclusive: 3.66 µM [falling, single point].
In the case of `O=S1(=O)CCN(Cc2ccc(Cl)c(C(F)(F)F)c2)CC1`, the lipid storage change, negative = inhibition is reported as inconclusive: -1.59%.
In the case of `Nc1nc(CSCCO)nc(Nc2ccccc2)n1`, the lipid storage change, negative = inhibition is reported as inconclusive: 0.629%.
In the case of `O=C(NCc1ccccn1)c1cc(-c2ccccc2)nc2ccccc12`, the Potency is reported as inconclusive: 0.291 µM [activator, full curve, poor fit].
For `COc1ccc(NC(=S)N2CCCC2)cc1OC`, the lipid storage change, negative = inhibition was inconclusive: -27.5%.
With `Cc1ccc(S(=O)(=O)N2CCN(c3ccc(C(=O)N4CCOCC4)cc3[N+](=O)[O-])CC2)cc1` the Potency was inconclusive: 20.6 µM [falling, partial curve, poor fit].
In the case of `Cc1ccc(C(=O)NCC(=O)OCCCn2c(=O)[nH]c3ccccc32)cc1`, the lipid storage change, negative = inhibition is reported as “inconclusive”.
For `O=C(CSc1nnc(-c2ccccc2Br)o1)N1CCN(C(=O)c2ccco2)CC1`, the lipid storage change, negative = inhibition was inconclusive: 0.275%.
With `COc1cccc(-c2ccc3c(c2)S(=O)(=O)c2cccc(C(=O)O)c2C3=O)c1OC` the Potency was active: 0.651 µM.
In the case of `CN(CC1CCOCC1)C(=O)c1ccc2nc(Cc3cccc(Cl)c3)oc2c1`, the Potency is reported as inconclusive: 1.84 µM [falling, partial curve, poor fit].
In the case of `Cc1ccc(N/C=C2\C(=O)C3(C)CCC2C3(C)C)cc1C` (stereo unspecified), the lipid storage change, negative = inhibition is reported as inconclusive: 0.285%.
With `Cc1cccc(-c2nnc(NC(=O)c3ccc(Cl)cc3)o2)c1` the lipid storage change, negative = inhibition was inconclusive: 55.4%.
For `Cc1nn(C(C)C(=O)NCc2ccco2)c(C)c1[N+](=O)[O-]` (stereo unspecified), the Potency was inconclusive: 29.1 µM [cytotoxic, single point].
With `COc1cc(OC)cc(N2CC(C)(C)C2=O)c1` the lipid storage change, negative = inhibition was inconclusive: -22.5%.
For `CN(C)C(=O)c1ccc(NC(=O)c2cc(-n3cnnc3)ccc2Cl)cc1`, the lipid storage change, negative = inhibition was inconclusive: 65.4%.
In the case of `CC(=O)Nc1ccc(NC(=O)c2ccccc2Nc2ccccc2)cc1`, the lipid storage change, negative = inhibition is reported as inconclusive: -5.32%.
